Results are given in words; binding and its absence hold for the method and conditions named. Binding seen in cells or lysates may run through a third protein. These calls come from enrichment with a bait or labelling near it, and not all partners need be listed.
Target: T1, binder of Arl two (BART) (human (endogenous in S2-013)) (UniProt Q9Y2Y0)
T1 sequence: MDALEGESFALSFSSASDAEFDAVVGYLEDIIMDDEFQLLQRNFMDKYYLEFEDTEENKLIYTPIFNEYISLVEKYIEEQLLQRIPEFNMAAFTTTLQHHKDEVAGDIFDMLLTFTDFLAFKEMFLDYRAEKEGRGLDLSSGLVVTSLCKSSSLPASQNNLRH
Experiment: affinity purification with mass spectrometry; S2-013 lysate (20 mM HEPES pH 7.4, 100 mM KCl, 5 mM MgCl2, 0.5% Triton X-100) precipitated with anti-BART antibody and protein G Sepharose; silver-stained 50-kDa band analysed by Q-TOF-MS; normal rabbit IgG as control

B1: annexin7 (ANX7) (protein, UniProt P20073-1 1-488)
chain: MSYPGYPPTGYPPFPGYPPAGQESSFPPSGQYPYPSGFPPMGGGAYPQVPSSGYPGAGGYPAPGGYPAPGGYPGAPQPGGAPSYPGVPPGQGFGVPPGGAGFSGYPQPPSQSYGGGPAQVPLPGGFPGGQMPSQYPGGQPTYPSQINTDSFSSYPVFSPVSLDYSSEPATVTQVTQGTIRPAANFDAIRDAEILRKAMKGFGTDEQAIVDVVANRSNDQRQKIKAAFKTSYGKDLIKDLKSELSGNMEELILALFMPPTYYDAWSLRKAMQGAGTQERVLIEILCTRTNQEIREIVRCYQSEFGRDLEKDIRSDTSGHFERLLVSMCQGNRDENQSINHQMAQEDAQRLYQAGEGRLGTDESCFNMILATRSFPQLRATMEAYSRMANRDLLSSVSREFSGYVESGLKTILQCALNRPAFFAERLYYAMKGAGTDDSTLVRIVVTRSEIDLVQIKQMFAQMYQKTLGTMIAGDTSGDYRRLLLAIVGQ
binding: binds
